Reference: article PMC5558016
These are yes or no findings as the source states them, for the method shown. In cells and extracts the contact can be indirect. Some entries that bind do so weakly or less than the wild type. Where a sequence is shown, tags or fusion partners need not be part of it.

Experiments:
[1] = target: endogenous full-length RTTN (human (endogenous in HEK293T)) (UniProt Q86VV8); assay: co-IP; HEK293T cells transfected with GFP-STIL; lysates immunoprecipitated with anti-RTTN antibodies, immunoblotted with anti-STIL and anti-RTTN
[2] = target: T1, Flag-RTTN-N (the amino-terminal region, aa 1–889), wild type (human) (UniProt Q86VV8); assay: co-IP; HEK293T cells co-transfected with GFP-STIL and Flag-tagged RTTN constructs; NP-40 lysis buffer (50 mM Tris-HCl pH 8.0, 150 mM NaCl, 1% NP-40); IP 2 h at 4 °C (anti-Flag in Fig. 7f), protein-G-sepharose, immunoblot
T1 sequence: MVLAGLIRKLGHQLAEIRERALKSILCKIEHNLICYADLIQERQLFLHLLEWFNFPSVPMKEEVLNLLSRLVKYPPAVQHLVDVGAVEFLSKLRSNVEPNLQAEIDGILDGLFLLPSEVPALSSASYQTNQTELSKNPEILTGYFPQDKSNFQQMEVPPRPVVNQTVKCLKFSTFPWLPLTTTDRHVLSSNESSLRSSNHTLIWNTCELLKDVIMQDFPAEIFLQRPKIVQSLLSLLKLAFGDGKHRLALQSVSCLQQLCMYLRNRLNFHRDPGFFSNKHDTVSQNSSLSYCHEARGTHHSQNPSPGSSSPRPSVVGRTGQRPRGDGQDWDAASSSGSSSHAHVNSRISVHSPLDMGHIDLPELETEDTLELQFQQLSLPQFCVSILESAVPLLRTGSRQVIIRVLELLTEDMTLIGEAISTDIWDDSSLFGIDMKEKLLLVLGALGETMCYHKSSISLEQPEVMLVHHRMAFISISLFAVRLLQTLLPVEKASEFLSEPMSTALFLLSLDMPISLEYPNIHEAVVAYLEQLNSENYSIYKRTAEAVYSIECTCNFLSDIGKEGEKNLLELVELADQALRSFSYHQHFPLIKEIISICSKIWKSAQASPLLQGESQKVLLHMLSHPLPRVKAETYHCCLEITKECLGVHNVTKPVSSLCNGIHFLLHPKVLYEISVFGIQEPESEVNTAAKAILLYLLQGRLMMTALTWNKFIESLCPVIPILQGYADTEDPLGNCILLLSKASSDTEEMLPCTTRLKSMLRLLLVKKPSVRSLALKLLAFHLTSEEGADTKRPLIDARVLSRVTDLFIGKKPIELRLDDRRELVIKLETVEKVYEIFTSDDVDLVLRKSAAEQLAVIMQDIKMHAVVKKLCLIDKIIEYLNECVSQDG

binding [1]: binds | binding [2]: binds
B1: GFP-tagged full-length STIL (protein, UniProt Q15468-2 1-1288)
chain: MEPIYPFARPQMNTRFPSSRMVPFHFPPSKCALWNPTPTGDFIYLHLSYYRNPKLVVTEKTIRLAYRHAKQNKKNSSCFLLGSLTADEDEEGVTLTVDRFDPGREVPECLEITPTASLPGDFLIPCKVHTQELCSREMIVHSVDDFSSALKALQCHICSKDSLDCGKLLSLRVHITSRESLDSVEFDLHWAAVTLANNFKCTPVKPIPIIPTALARNLSSNLNISQVQGTYKYGYLTMDETRKLLLLLESDPKVYSLPLVGIWLSGITHIYSPQVWACCLRYIFNSSVQERVFSESGNFIIVLYSMTHKEPEFYECFPCDGKIPDFRFQLLTSKETLHLFKNVEPPDKNPIRCELSAESQNAETEFFSKASKNFSIKRSSQKLSSGKMPIHDHDSGVEDEDFSPRPIPSPHPVSQKISKIQPSVPELSLVLDGNFIESNPLPTPLEMVNNENPPLINHLEHLKPLQPQLYDEKHSPEVEAGEPSLRGIPNQLNQDKPALLRHCKVRQPPAYKKGNPHTRNSIKPSSHNGPSHDIFEKLQTVSAGNVQNEEYPIRPSTLNSRQSSLAPQSQPHDFVFSPHNSGRPMELQIPTPPLPSYCSTNVCRCCQHHSHIQYSPLNSWQGANTVGSIQDVQSEALQKHSLFHPSGCPALYCNAFCSSSSPIALRPQGDMGSCSPHSNIEPSPVARPPSHMDLCNPQPCTVCMHTPKTESDNGMMGLSPDAYRFLTEQDRQLRLLQAQIQRLLEAQSLMPCSPKTTAVEDTVQAGRQMELVSVEAQSSPGLHMRKGVSIAVSTGASLFWNAAGEDQEPDSQMKQDDTKISSEDMNFSVDINNEVTSLPGSASSLKAVDIPSFEESNIAVEEEFNQPLSVSNSSSLVVRKEPDVPVFFPSGQLAESVSMCLQTGPTGGASNNSETSEEPKIEHVMQPLLHQPSDNQKIYQDLLGQVNHLLNSSSKETEQPSTKAVIISHECTRTQNVYHTKKKTHHSRLVDKDCVLNATLKQLRSLGVKIDSPTKVKKNAHNVDHASVLACISPEAVISGLNCMSFANVGMSGLSPNGVDLSMEANAIALKYLNENQLSQLSVTRSNQNNCDPFSLLHINTDRSTVGLSLISPNNMSFATKKYMKRYGLLQSSDNSEDEEEPPDNADSKSEYLLNQNLRSIPEQLGGQKEPSKNDHEIINCSNCESVGTNADTPVLRNITNEVLQTKAKQQLTEKPAFLVKNLKPSPAVNLRTGKAEFTQHPEKENEGDITIFPESLQPSETLKQMNSMNSVGTFLDVKRLRQLPKLF
